The target in this test is 重组4-1BB-huIgG1 Fc融合蛋白 (human) (UniProt Q07011). Put plainly: ELISA, coated 4-1BB-huIgG1 Fc 100 ng/well, biotinylated ligand from 50 ng/well, HRP-streptavidin. On the technique in general: In an ELISA, binding on a coated surface is turned into a signal by an enzyme label.

Protein sequences, listed by entry. Tags and fused reporters are not part of them. Residues count along the entry.
UniProt Q07011, residues 24-186: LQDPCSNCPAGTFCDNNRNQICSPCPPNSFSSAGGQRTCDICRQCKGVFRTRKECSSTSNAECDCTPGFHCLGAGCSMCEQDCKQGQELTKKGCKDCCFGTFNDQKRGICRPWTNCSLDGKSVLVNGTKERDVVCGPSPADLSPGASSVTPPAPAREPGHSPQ
UniProt P41273, residues 71-254: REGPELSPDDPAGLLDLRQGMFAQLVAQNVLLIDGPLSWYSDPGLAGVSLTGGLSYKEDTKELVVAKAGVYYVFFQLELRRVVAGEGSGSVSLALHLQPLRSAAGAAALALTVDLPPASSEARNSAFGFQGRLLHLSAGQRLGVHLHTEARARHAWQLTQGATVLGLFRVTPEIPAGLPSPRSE

No constants are given. Whether binding was seen depends on the method and setting. Some results given as binding are weak or reduced against the parent protein; the word gives no strength.

“Biotinylated Human 4-1BB Ligand (from UniProt P41273 71-254)”: the binding result is given as “binds”.
